Results are given in words; binding and its absence hold for the method and conditions named. For some assays here: Binding seen in cells or lysates may run through a third protein. Some results given as binding are weak or reduced against the parent protein; the word gives no strength. For some assays here: Where a sequence is shown, tags or fusion partners need not be part of it.

The chains behind the UniProt entries cited, without tags or fusion partners. Residues count along the entry.
UniProt P01375: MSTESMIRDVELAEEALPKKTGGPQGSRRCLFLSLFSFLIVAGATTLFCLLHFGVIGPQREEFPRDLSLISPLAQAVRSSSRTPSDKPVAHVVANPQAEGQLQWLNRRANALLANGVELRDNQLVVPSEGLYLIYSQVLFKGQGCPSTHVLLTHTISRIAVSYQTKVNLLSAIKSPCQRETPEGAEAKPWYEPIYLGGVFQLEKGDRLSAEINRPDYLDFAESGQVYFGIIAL
UniProt P78536, residues 215-824: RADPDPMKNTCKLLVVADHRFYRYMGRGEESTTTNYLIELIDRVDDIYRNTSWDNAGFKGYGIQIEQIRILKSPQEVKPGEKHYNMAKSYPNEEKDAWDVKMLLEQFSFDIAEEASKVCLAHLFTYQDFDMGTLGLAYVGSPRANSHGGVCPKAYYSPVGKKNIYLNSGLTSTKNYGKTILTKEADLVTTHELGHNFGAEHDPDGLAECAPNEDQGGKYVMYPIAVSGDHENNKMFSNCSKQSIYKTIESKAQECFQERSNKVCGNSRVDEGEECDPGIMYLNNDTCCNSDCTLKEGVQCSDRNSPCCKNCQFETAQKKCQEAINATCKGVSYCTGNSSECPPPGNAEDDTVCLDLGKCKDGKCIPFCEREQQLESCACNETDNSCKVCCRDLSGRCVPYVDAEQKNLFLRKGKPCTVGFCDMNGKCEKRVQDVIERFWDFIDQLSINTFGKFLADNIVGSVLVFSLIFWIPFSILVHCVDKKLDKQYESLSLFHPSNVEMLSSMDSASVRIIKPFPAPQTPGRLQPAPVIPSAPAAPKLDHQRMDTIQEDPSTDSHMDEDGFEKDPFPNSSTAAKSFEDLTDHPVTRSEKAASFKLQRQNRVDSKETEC
UniProt P21926: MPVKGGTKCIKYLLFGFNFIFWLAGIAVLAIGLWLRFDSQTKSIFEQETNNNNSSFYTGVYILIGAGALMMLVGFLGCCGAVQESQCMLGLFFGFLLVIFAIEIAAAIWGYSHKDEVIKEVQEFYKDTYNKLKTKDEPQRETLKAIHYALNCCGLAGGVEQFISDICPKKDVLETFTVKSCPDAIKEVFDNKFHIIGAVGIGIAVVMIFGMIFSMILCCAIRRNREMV

Assay [1] has as its target T1, endogenous Tspan8 (human (endogenous in HT29)) (UniProt P19075).
T1 sequence: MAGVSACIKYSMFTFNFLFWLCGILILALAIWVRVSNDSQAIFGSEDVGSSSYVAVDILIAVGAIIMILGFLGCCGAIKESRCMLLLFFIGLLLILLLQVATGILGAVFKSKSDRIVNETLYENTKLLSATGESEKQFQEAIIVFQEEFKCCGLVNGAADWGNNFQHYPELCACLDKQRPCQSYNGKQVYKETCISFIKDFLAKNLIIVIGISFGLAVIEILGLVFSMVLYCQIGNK
Briefly: co-IP; HT29 cells, unstimulated or stimulated 30 min with 200 nM PMA or 1 µg/mL LPS; lysed in buffer with Brij97 (preserves the tetraspanin web) or digitonin (disrupts secondary interactions); Tspan8 immunoprecipitated with primary antibody and protein G-agarose, immunoblot.

In another assay the target is TNFα-YPet (UniProt P01375). Briefly: FRET or BRET; FRET microscopy of live transfected HEK293T cells; Tetraspanin-CyPet as donor, ADAM17-YPet or TNFα-YPet as acceptor; precision FRET after subtraction of spectral bleed through. Background: In BRET a luciferase serves as donor, and the signal depends on an acceptor being close.
For assay [2], the target named is Tspan8 fused to RFP-A or RFP-B (UniProt P19075). Briefly: red fluorescent protein dimerization assay; transfected HEK293T cells, one protein fused to RFP-A and one to RFP-B; bright RFP hetero-dimer on interaction; confocal imaging of cells on the second day after transfection.

As for “endogenous ADAM17, mature form (from UniProt P78536 215-824) (enzyme)”, the binding result in assay [1] was “binds”. On to CD9-CyPet (from UniProt P21926 1-228), for which, in the assay with TNFα-YPet, the binding result was “binds”.

B1: Tspan8-CyPet (protein, UniProt P19075 1-237)
chain: MAGVSACIKYSMFTFNFLFWLCGILILALAIWVRVSNDSQAIFGSEDVGSSSYVAVDILIAVGAIIMILGFLGCCGAIKESRCMLLLFFIGLLLILLLQVATGILGAVFKSKSDRIVNETLYENTKLLSATGESEKQFQEAIIVFQEEFKCCGLVNGAADWGNNFQHYPELCACLDKQRPCQSYNGKQVYKETCISFIKDFLAKNLIIVIGISFGLAVIEILGLVFSMVLYCQIGNK
B1: in the assay with TNFα-YPet, the binding result is recorded as “binds”.

B2: Tspan8 fused to RFP-A or RFP-B (protein, UniProt P19075 1-237)
chain: MAGVSACIKYSMFTFNFLFWLCGILILALAIWVRVSNDSQAIFGSEDVGSSSYVAVDILIAVGAIIMILGFLGCCGAIKESRCMLLLFFIGLLLILLLQVATGILGAVFKSKSDRIVNETLYENTKLLSATGESEKQFQEAIIVFQEEFKCCGLVNGAADWGNNFQHYPELCACLDKQRPCQSYNGKQVYKETCISFIKDFLAKNLIIVIGISFGLAVIEILGLVFSMVLYCQIGNK
As to B2, in assay [2], the binding result was “binds”.

B3: CD81-CyPet (protein, UniProt P60033 1-236)
chain: MGVEGCTKCIKYLLFVFNFVFWLAGGVILGVALWLRHDPQTTNLLYLELGDKPAPNTFYVGIYILIAVGAVMMFVGFLGCYGAIQESQCLLGTFFTCLVILFACEVAAGIWGFVNKDQIAKDVKQFYDQALQQAVVDDDANNAKAVVKTFHETLDCCGSSTLTALTTSVLKNNLCPSGSNIISNLFKEDCHQKIDDLFSGKLYLIGIAAIVVAVIMIFEMILSMVLCCGIRNSSVY
In the case of B3, the binding result with TNFα-YPet is “no binding”.

(Values after paper PMC9454446.)
